These are yes or no findings as the source states them, for the method shown. Binding seen in cells or lysates may run through a third protein. For some assays here: A result given as binding can be weak or reduced; the word gives no strength.
Columns and labels:
[1] = biological target: GFP-dbp5^R369G (S. cerevisiae) (UniProt P20449); test: co-IP; GFP-tagged Dbp5 immunoprecipitated with polyclonal rabbit anti-GFP and Protein A sepharose from yeast lysate treated with water; 25 mM HEPES pH 7.4, 150 mM KCl, 2 mM MgCl2, 0.1% NP-40; eluates immunoblotted
[2] = biological target: GFP-Dbp5 (S. cerevisiae) (UniProt P20449); test: as above
[3] = biological target: Dbp5-VC (S. cerevisiae) (UniProt P20449); test: split reporter; split Venus (VN and VC at the C-termini), heterozygous diploid yeast, mid-log phase at 23°C, wide-field live-cell fluorescence; reciprocal tagging confirmed the observed association; Dbp5-VC Nab2-VN signal not reduced in many cells after 30 min thiolutin
[4] = biological target: GFP-dbp5^R369G (S. cerevisiae) (UniProt P20449); test: condition: only lysate treated with 0.5ug/uL RNase A; co-IP; as the co-IP without RNase, but lysate treated with 0.5ug/uL RNase A for 10 min before immunoprecipitation with anti-GFP
[5] = biological target: GFP-Dbp5 (S. cerevisiae) (UniProt P20449); test: as above
[6] = biological target: Dbp5-VC (S. cerevisiae) (UniProt P20449); test: condition: only after a shift to 42°C for 10 minutes (heat shock); split reporter; split Venus, heterozygous diploid yeast grown at 23°C and shifted to 42°C for 10 min (heat shock), wide-field live-cell fluorescence

By UniProt entry, the sequences of proteins in these tests, tags left out. Where a name states a change or a piece, a line headed by the entry shows the natural chain unless it says otherwise.
UniProt P20449: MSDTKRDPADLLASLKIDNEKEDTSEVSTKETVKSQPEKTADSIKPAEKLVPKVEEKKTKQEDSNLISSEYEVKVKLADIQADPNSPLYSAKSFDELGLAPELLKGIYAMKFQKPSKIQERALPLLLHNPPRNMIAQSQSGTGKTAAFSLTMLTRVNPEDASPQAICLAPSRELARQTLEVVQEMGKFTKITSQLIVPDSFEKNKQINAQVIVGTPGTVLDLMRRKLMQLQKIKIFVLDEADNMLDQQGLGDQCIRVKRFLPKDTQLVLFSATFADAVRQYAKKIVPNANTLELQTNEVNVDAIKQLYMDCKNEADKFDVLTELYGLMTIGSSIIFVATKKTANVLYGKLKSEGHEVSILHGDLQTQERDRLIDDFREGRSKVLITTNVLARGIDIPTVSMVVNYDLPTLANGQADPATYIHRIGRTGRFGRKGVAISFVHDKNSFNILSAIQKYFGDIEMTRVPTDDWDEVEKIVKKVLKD
UniProt P04147: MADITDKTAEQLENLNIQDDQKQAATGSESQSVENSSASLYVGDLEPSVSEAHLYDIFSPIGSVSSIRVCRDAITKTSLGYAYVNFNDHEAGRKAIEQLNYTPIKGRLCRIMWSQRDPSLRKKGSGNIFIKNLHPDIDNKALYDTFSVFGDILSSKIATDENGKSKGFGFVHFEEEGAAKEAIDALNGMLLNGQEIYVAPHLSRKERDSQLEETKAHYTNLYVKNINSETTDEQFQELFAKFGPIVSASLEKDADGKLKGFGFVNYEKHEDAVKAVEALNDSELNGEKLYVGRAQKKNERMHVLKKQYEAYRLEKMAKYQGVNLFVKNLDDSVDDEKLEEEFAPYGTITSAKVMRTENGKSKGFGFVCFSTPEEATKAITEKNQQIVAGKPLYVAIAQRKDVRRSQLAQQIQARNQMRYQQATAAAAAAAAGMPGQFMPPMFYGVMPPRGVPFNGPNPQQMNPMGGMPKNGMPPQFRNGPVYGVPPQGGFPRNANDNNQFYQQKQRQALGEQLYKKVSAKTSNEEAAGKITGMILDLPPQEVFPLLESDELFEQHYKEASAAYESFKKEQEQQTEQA
UniProt P34160: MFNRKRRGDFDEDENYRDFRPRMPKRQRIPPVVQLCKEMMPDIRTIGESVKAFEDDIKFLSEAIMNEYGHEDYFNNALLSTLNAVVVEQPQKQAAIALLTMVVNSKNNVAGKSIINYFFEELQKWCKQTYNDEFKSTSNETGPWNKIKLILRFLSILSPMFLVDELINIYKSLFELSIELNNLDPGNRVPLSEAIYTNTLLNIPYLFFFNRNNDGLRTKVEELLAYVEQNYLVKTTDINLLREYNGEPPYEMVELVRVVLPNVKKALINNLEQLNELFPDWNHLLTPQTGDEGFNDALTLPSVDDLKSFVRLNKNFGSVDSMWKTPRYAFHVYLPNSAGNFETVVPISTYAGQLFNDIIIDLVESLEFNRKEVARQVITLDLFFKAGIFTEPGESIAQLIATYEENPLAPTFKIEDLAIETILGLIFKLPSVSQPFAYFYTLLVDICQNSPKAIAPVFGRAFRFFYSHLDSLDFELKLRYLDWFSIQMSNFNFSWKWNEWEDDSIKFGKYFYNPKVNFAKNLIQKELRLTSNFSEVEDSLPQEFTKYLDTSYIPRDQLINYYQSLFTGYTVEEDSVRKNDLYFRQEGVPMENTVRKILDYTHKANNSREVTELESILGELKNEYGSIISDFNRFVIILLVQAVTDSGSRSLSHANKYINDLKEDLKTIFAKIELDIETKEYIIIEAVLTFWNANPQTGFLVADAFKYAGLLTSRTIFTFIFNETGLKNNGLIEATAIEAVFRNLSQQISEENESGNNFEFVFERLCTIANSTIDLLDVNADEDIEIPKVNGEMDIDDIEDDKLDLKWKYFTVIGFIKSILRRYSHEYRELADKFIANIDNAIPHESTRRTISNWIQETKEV

binding [1] | binding [2] | binding [3] | binding [4] | binding [5] | binding [6] | Molecule
binds | binds | – | no binding | no binding | – | Nab2 (protein, UniProt P32505 1-525) MSQEQYTENLKVIVAEKLAGIPNFNEDIKYVAEYIVLLIVNGGTVESVVDELASLFDSVSRDTLANVVQTAFFALEALQQGESAENIVSKIRMMNAQSLGQSDIAQQQQQQQQQQQPDIAQQQPQQQPQQQPQQQPQQQPQQQPQQQPQQQPQQQPQLQPLQPQLGTQNAMQTDAPATPSPISAFSGVVNAAAPPQFAPVDNSQRFTQRGGGAVGKNRRGGRGGNRGGRNNNSTRFNPLAKALGMAGESNMNFTPTKKEGRCRLFPHCPLGRSCPHAHPTKVCNEYPNCPKPPGTCEFLHPNEDEELMKEMERTREEFQKRKADLLAAKRKPVQTGIVLCKFGALCSNPSCPFGHPTPANEDAKVIDLMWCDKNLTCDNPECRKAHSSLSKIKEVKPISQKKAAPPPVEKSLEQCKFGTHCTNKRCKYRHARSHIMCREGANCTRIDCLFGHPINEDCRFGVNCKNIYCLFRHPPGRVLPEKKGAAPNSNVPTNERPFALPENAIIENAPPQTSFTHQEQDTEMN
– | – | binds | – | – | no binding | Nab2-VN (protein, UniProt P32505 1-525) MSQEQYTENLKVIVAEKLAGIPNFNEDIKYVAEYIVLLIVNGGTVESVVDELASLFDSVSRDTLANVVQTAFFALEALQQGESAENIVSKIRMMNAQSLGQSDIAQQQQQQQQQQQPDIAQQQPQQQPQQQPQQQPQQQPQQQPQQQPQQQPQQQPQLQPLQPQLGTQNAMQTDAPATPSPISAFSGVVNAAAPPQFAPVDNSQRFTQRGGGAVGKNRRGGRGGNRGGRNNNSTRFNPLAKALGMAGESNMNFTPTKKEGRCRLFPHCPLGRSCPHAHPTKVCNEYPNCPKPPGTCEFLHPNEDEELMKEMERTREEFQKRKADLLAAKRKPVQTGIVLCKFGALCSNPSCPFGHPTPANEDAKVIDLMWCDKNLTCDNPECRKAHSSLSKIKEVKPISQKKAAPPPVEKSLEQCKFGTHCTNKRCKYRHARSHIMCREGANCTRIDCLFGHPINEDCRFGVNCKNIYCLFRHPPGRVLPEKKGAAPNSNVPTNERPFALPENAIIENAPPQTSFTHQEQDTEMN

Further lines, the molecule ahead of its results:

Molecule | binding [1] | binding [2] | binding [3] | binding [4] | binding [5] | binding [6]
Pab1 (from UniProt P04147 1-577) | no binding | no binding | – | – | – | –
Cbp80 (from UniProt P34160 1-861) | no binding | – | – | – | – | –
Pab1-VN (from UniProt P04147 1-577) | – | – | no binding | – | – | –
Mex67 (protein, UniProt Q99257 1-599) MSGFHNVGNINMMAQQQMQQNRIKISVRNWQNATMNDLINFISRNARVAVYDAHVEGPLVIGYVNSKAEAESLMKWNGVRFAGSNLKFELLDNNGASAGTSDTISFLRGVLLKRYDPQTKLLNLGALHSDPELIQKGVFSSISTQSKMFPAMMKLASTEKSLIVESVNLADNQLKDISAISTLAQTFPNLKNLCLANNQIFRFRSLEVWKNKFKDLRELLMTNNPITTDKLYRTEMLRLFPKLVVLDNVIVRDEQKLQTVYSLPMKIQQFFFENDALGQSSTDFATNFLNLWDNNREQLLNLYSPQSQFSVSVDSTIPPSTVTDSDQTPAFGYYMSSSRNISKVSSEKSIQQRLSIGQESINSIFKTLPKTKHHLQEQPNEYSMETISYPQINGFVITLHGFFEETGKPELESNKKTGKNNYQKNRRYNHGYNSTSNNKLSKKSFDRTWVIVPMNNSVIIASDLLTVRAYSTGAWKTASIAIAQPPQQQASVLPQVASMNPNITTPPQPQPSVVPGGMSIPGAPQGAMVMAPTLQLPPDVQSRLNPVQLELLNKLHLETKLNAEYTFMLAEQSNWNYEVAIKGFQSSMNGIPREAFVQF | binds | binds | – | no binding | no binding | –
